The supplement of paper PMC10849652
Some of the results follow.

Chains of the proteins cited; added tags and fusions are not shown. Lines headed by an entry give the natural chain unless they say otherwise; changes in a name come on top.
UniProt O14929: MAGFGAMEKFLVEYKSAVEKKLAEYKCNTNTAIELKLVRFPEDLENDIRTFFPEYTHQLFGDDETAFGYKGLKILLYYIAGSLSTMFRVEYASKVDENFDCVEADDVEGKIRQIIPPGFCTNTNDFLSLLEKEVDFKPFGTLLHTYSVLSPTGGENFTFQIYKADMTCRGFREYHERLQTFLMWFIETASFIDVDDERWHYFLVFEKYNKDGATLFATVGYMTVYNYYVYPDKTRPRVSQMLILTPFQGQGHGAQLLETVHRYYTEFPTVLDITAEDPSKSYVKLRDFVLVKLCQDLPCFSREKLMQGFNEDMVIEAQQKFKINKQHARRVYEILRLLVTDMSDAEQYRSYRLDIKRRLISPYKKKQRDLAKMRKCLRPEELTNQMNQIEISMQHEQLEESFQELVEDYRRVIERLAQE
UniProt Q92769, whole entry, looked up: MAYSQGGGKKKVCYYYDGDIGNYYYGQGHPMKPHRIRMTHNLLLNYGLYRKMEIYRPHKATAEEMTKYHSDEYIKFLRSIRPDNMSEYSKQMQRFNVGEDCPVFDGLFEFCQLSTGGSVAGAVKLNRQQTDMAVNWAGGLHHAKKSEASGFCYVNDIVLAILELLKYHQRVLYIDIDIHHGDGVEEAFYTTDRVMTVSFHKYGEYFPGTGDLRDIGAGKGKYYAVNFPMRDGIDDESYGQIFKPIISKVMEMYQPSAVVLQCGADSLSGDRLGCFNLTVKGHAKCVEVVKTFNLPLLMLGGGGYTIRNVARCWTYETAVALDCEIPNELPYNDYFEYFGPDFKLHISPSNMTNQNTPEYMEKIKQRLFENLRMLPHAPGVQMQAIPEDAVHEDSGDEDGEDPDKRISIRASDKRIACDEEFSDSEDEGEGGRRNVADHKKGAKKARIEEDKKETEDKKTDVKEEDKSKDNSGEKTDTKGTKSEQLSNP
UniProt P30711: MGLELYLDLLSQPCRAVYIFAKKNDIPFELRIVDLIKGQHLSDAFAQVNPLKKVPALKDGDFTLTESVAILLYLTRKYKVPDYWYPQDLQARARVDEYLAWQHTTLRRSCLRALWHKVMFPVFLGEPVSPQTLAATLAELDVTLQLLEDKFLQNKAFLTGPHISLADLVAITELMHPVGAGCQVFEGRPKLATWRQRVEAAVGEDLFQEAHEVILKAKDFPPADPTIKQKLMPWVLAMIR
UniProt Q99871: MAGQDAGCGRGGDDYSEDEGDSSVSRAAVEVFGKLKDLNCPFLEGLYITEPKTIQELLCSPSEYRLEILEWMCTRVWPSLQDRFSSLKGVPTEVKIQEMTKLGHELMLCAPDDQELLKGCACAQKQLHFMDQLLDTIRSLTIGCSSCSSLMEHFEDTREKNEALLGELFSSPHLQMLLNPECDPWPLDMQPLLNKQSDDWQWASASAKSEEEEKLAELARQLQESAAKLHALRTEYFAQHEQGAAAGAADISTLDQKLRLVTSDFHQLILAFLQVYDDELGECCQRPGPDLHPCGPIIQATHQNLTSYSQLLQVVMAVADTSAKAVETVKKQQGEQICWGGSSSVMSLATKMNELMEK
UniProt Q00403, whole entry, looked up: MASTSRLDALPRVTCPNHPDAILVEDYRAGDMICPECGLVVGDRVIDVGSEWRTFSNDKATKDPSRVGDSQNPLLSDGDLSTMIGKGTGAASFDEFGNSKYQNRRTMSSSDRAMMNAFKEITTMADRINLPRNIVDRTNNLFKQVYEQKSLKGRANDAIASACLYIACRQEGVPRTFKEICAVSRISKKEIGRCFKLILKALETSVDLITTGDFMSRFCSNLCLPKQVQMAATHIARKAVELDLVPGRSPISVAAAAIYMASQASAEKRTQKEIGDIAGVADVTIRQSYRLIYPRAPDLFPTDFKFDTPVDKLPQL
UniProt Q13888: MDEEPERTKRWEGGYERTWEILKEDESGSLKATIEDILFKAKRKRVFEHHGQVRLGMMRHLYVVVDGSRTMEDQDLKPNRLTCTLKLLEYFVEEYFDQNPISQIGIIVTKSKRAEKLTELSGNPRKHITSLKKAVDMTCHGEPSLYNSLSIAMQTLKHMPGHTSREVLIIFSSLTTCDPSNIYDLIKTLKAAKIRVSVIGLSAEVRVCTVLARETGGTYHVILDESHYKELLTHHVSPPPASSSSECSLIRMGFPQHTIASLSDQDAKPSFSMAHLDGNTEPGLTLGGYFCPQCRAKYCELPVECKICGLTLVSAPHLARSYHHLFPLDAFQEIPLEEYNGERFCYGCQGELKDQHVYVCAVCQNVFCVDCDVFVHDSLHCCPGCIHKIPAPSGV
UniProt Q9BQ67, whole entry, looked up: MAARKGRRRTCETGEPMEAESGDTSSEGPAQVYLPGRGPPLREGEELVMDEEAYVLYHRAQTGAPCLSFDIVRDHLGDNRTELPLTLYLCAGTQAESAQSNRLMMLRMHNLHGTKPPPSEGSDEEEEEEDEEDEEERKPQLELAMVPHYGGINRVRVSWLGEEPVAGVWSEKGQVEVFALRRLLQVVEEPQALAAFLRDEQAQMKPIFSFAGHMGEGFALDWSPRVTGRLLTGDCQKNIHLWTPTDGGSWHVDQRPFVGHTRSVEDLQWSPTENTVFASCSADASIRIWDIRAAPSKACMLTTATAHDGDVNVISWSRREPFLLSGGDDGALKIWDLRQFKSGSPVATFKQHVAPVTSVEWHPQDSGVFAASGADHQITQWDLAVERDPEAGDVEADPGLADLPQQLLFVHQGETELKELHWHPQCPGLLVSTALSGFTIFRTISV
UniProt P35269, whole entry, looked up: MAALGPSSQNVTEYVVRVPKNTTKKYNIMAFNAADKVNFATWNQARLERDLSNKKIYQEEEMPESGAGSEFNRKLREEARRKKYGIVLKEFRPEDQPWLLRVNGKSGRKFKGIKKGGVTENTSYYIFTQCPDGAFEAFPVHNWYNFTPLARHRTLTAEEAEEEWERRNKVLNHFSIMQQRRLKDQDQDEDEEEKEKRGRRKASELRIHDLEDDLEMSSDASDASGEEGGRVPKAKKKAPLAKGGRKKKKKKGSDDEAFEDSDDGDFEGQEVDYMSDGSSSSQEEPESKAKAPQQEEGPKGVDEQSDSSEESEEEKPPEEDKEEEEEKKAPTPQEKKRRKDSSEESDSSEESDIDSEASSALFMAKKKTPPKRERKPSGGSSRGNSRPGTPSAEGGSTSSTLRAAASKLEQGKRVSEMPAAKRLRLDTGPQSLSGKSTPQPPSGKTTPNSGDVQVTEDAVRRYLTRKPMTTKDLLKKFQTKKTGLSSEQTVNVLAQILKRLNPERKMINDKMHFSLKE
UniProt Q9UJ83: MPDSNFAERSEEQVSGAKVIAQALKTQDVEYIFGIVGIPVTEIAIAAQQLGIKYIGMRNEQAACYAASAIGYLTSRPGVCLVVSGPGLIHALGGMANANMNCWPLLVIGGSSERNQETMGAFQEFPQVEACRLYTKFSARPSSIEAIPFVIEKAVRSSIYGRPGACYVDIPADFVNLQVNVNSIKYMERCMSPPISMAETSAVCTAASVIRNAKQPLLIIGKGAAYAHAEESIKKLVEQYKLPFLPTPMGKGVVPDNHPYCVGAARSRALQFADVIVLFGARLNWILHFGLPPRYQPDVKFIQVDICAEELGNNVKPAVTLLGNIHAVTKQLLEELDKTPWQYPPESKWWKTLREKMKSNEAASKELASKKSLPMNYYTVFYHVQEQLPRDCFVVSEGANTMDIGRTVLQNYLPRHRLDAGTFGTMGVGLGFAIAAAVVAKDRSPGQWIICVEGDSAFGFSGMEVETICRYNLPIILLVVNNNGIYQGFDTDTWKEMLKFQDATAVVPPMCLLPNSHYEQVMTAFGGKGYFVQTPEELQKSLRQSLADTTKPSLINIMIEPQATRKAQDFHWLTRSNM
UniProt Q4G148: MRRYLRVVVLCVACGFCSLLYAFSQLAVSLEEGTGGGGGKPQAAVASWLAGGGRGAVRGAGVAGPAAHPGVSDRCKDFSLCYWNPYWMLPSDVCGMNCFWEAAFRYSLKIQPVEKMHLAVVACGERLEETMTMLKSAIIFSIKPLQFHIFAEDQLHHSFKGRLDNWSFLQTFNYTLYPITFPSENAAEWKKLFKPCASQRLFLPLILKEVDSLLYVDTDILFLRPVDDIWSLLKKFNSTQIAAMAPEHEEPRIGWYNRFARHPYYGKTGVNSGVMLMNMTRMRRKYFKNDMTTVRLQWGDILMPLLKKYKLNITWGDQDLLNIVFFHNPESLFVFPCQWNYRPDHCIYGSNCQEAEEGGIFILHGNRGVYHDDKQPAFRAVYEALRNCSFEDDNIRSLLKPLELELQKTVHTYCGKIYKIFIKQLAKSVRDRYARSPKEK
UniProt P12081: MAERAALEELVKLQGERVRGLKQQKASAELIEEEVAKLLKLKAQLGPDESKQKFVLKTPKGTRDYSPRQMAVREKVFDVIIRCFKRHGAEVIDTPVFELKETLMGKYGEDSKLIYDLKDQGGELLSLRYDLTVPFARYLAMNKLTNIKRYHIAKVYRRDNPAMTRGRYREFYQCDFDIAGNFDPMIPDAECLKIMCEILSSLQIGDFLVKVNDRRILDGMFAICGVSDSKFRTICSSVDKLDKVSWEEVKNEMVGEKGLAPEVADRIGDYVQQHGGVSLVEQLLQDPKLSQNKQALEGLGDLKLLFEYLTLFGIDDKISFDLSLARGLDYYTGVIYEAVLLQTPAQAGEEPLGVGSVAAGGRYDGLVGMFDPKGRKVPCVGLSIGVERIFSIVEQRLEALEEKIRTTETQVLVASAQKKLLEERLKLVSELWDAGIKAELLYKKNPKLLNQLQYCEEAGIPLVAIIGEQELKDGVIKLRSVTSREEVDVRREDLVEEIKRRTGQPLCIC
UniProt Q9BY41: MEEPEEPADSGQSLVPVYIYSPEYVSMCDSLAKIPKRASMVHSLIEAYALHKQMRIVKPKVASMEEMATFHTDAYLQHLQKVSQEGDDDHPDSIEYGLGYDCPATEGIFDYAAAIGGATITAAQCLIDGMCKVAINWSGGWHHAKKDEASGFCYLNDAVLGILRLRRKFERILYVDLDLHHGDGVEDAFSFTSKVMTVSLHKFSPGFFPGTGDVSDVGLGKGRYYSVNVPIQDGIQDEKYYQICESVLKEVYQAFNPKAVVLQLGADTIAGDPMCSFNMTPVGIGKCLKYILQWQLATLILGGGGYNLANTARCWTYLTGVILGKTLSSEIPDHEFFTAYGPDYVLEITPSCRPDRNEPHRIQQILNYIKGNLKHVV
UniProt P49840: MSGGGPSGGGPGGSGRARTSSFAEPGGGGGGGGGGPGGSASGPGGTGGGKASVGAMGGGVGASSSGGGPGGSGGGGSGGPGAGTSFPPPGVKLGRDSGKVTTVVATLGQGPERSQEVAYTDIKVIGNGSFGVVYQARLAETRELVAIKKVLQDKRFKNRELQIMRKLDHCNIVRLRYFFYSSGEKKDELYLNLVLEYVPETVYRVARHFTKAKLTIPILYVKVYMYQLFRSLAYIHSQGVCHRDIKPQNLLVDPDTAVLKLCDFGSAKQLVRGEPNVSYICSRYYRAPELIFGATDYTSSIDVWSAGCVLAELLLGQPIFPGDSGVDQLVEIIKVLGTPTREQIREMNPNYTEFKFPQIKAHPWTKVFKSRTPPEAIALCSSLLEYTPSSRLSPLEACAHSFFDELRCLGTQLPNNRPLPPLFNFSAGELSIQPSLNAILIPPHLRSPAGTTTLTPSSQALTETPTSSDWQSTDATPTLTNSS
UniProt Q9NYZ3: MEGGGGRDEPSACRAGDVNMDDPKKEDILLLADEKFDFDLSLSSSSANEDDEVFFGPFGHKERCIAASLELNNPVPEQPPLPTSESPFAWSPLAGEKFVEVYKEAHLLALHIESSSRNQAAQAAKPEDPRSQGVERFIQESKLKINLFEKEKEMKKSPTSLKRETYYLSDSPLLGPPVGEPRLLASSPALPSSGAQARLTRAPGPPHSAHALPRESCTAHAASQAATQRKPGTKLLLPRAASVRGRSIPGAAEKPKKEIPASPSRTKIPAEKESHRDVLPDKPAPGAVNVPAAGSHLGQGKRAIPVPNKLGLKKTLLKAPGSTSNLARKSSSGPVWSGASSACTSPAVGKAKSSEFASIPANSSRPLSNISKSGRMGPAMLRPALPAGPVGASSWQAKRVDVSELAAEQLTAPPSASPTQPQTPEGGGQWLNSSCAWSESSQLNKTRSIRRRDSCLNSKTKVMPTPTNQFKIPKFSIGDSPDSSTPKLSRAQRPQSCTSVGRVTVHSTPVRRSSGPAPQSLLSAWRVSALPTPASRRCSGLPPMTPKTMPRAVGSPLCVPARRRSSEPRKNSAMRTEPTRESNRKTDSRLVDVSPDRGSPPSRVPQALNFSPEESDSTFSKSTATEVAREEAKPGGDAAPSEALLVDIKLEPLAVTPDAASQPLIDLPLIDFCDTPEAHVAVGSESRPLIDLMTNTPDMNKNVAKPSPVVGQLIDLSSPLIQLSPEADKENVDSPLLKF
UniProt P51858: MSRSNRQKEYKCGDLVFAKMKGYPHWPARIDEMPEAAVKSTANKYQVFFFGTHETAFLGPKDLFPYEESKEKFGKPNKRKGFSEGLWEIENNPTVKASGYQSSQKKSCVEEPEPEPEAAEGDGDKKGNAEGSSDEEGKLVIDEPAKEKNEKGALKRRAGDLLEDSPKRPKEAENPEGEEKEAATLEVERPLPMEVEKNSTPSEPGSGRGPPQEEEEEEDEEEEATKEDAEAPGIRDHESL

Experiments:
Test in all cases: log2 fold change, soluble protein after heating vs DMSO (PISA); higher = thermal stabilisation; K562 lysate, 10 uM; active = over 0.2 and 3.5 SD of the protein, either way, in both replicates (recomputed)
[1] = compound: CCCS(=O)(=O)Nc1ccc(F)c(C(=O)c2c[nH]c3ncc(-c4ccc(Cl)cc4)cc23)c1F [vemurafenib]
Outline: (§1)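 A 30 min treatment with 10 μM compound was applied to crude K562 extract at 1 mg/mL protein in PBS pH 7.4 with 1 mM MgCl2. Heating for 3 min spanned 48°C-58°C, after which aliquots were pooled, adjusted to 0.5% NP-40 at 4°C and spun at 21,000xg for 90 min. TMTpro 16plex LC-MS/MS of the supernatant, with channel sums equalised, gave values recorded as log-two fold change in thermal stability against solvent controls, from duplicates.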

[2] = compound: CCCS(=O)(=O)Nc1ccc(F)c(C(=O)c2c[nH]c3ncc(Cl)cc23)c1F
Outline: as §1

[3] = compound: CCN(CCCOc1ccc2c(Nc3cc(CC(=O)Nc4cccc(F)c4)[nH]n3)ncnc2c1)CCOP(=O)(O)O [barasertib]
Outline: as §1

[4] = compound: CC[C@@H]1C(=O)N(C)c2cnc(Nc3ccc(C(=O)NC4CCN(C)CC4)cc3OC)nc2N1C1CCCC1
Outline: as §1

[5] = compound: CC[C@@H]1C(=O)N(C)c2cnc(Nc3ccc(C(=O)N[C@H]4CC[C@H](N5CCN(CC6CC6)CC5)CC4)cc3OC)nc2N1C(C)C [volasertib]
Outline: as §1

[6] = compound: CCn1c(C(=O)N(C2CC2)C2CC2)cc2c3c(ncn3C)c(Nc3cc(C)n(C)n3)nc21
Outline: as §1

[7] = compound: CCn1cc(-c2ccnc3[nH]c(-c4cccc(CN(C)C)c4)cc23)c(-c2ccc(NC(=O)N(C)C)cc2)n1
Outline: as §1

[8] = compound: CN1CCC(CNc2ccc3ncc(-c4cccc(OC(F)(F)F)c4)n3n2)CC1
Outline: as §1

[9] = compound: CN1CCN(CCOc2cc(OC3CCOCC3)c3c(Nc4c(Cl)ccc5c4OCO5)ncnc3c2)CC1 [saracatinib]
Outline: as §1

[10] = compound: CN1CCN(c2nc(C3=C(c4c[nH]c5ccccc45)C(=O)NC3=O)c3ccccc3n2)CC1 [sotrastaurin]
Outline: as §1

[11] = compound: CN1CC[C@H](c2c(O)cc(O)c3c(=O)cc(-c4ccccc4Cl)oc23)[C@H](O)C1 [alvocidib]
Outline: as §1

[12] = compound: CN1CCc2c(c3ccccc3n2Cc2ccc(C(=O)NO)cc2)C1 [Tubastatin A]
Outline: as §1

[13] = compound: CNC(=O)C1=CC=CC=C1NC2=NC(=NC=C2Cl)NC3=C(C=C(C=C3)N4CCOCC4)OC
Outline: as §1

[14] = compound: CNC(=O)c1ccc(Nc2ncc(C(F)(F)F)c(NCc3nccnc3N(C)S(C)(=O)=O)n2)cc1 [defactinib]
Outline: as §1

[15] = compound: CNc1nc(-c2ccc3c(N)n[nH]c3c2)cc(N2C[C@@H](C(=O)NC3CCCCC3)CC[C@H]2C)n1
Outline: as §1

[16] = compound: COC(=O)N[C@@H](C)CNc1nccc(-c2cn(C(C)C)nc2-c2cc(Cl)cc(NS(C)(=O)=O)c2F)n1 [encorafenib]
Outline: as §1

[17] = compound: COC(=O)[C@H](CCSC)NC(=O)C1=C(C=C(C=C1)NC[C@H](CS)N)C2=CC=CC=C2
Outline: as §1

[18] = compound: COc1cc(Nc2ncc3c(n2)-c2ccc(Cl)cc2C(c2c(F)cccc2OC)=NC3)ccc1C(=O)O [alisertib]
Outline: as §1

[19] = compound: COc1cc2nc(-c3cc(F)ccc3O)nc(N[C@@H]3CNC[C@H]3C(C)(C)O)c2cc1OC
Outline: as §1

[20] = compound: COc1cc2ncnc(Nc3ccc(F)c(Cl)c3)c2cc1OCCCN1CCOCC1 [gefitinib]
Outline: as §1

Measured: log2 fold change

HAT1 (UniProt O14929)
inactive: [1] 0.007 | [2] 0.004 | [3] -0.017 | [4] 0.028 | [5] 0.023 | [6] -0.028 | [7] -0.002 | [8] 0.042 | [9] 0.021 | [10] 0.022 | [11] -0.027 | [12] -0.043 | [13] -0.011 | [14] 0.027 | [15] 0.008 | [16] 0.008 | [17] 0.029 | [18] -0.018 | [19] 0.012 | [20] 0.014

HDAC2 (UniProt Q92769)
inactive: [1] -0.025 | [2] 0.035 | [3] 0.009 | [4] -0.012 | [5] -0.009 | [6] 0.002 | [7] -0.052 | [8] 0.055 | [9] 0.02 | [10] -0.024 | [11] -0.01 | [12] -0.012 | [13] -0.007 | [14] 0.006 | [15] 0.003 | [16] -0.006 | [17] 0.007 | [18] 0.002 | [19] 0 | [20] 0.013

GSTT1 (UniProt P30711)
inactive: [1] 0.075 | [2] 0.002 | [3] 0.116 | [4] -0.028 | [5] 0.038 | [6] 0.045 | [7] -0.061 | [8] -0.036 | [9] -0.045 | [10] -0.004 | [11] 0.017 | [12] 0.073 | [13] -0.003 | [14] 0.022 | [15] 0.04 | [16] 0.021 | [17] -0.031 | [18] 0 | [19] -0.035 | [20] -0.041

HAUS7 isoform 2 (UniProt Q99871)
inactive: [1] -0.054 | [2] 0.006 | [3] 0.002 | [4] 0.005 | [5] -0.06 | [6] -0.021 | [7] 0.073 | [8] -0.173 | [9] 0.044 | [10] -0.025 | [11] 0.001 | [12] -0.128 | [13] 0.021 | [14] -0.045 | [15] -0.021 | [16] 0.024 | [17] 0.099 | [18] 0.031 | [19] -0.135 | [20] -0.043

Looked up one by one from the entries so far, two records:
GSTT1 (UniProt P30711)
inactive: [1] 0.075 | [2] 0.002 | [3] 0.116 | [4] -0.028 | [5] 0.038 | [6] 0.045 | [7] -0.061 | [8] -0.036 | [9] -0.045 | [10] -0.004 | [11] 0.017 | [12] 0.073 | [13] -0.003 | [14] 0.022 | [15] 0.04 | [16] 0.021 | [17] -0.031 | [18] 0 | [19] -0.035 | [20] -0.041

HDAC2 (UniProt Q92769)
inactive: [1] -0.025 | [2] 0.035 | [3] 0.009 | [4] -0.012 | [5] -0.009 | [6] 0.002 | [7] -0.052 | [8] 0.055 | [9] 0.02 | [10] -0.024 | [11] -0.01 | [12] -0.012 | [13] -0.007 | [14] 0.006 | [15] 0.003 | [16] -0.006 | [17] 0.007 | [18] 0.002 | [19] 0 | [20] 0.013

More entries follow.

GTF2B (UniProt Q00403)
inactive: [1] 0.059 | [2] 0.013 | [3] -0.017 | [4] 0.019 | [5] -0.026 | [6] 0.021 | [7] -0.046 | [8] -0.003 | [9] -0.029 | [10] -0.008 | [11] 0.019 | [12] -0.033 | [13] 0.04 | [14] -0.009 | [15] -0.028 | [16] -0.012 | [17] -0.114 | [18] 0.05 | [19] 0.005 | [20] 0.035

GTF2H2 (UniProt Q13888)
inactive: [1] -0.037 | [2] 0.016 | [3] 0.019 | [4] -0.053 | [5] -0.053 | [6] 0.083 | [7] -0.1 | [8] 0.051 | [9] 0.045 | [10] -0.014 | [11] -0.043 | [12] -0.065 | [13] 0.042 | [14] -0.001 | [15] 0.145 | [16] 0.04 | [17] -0.107 | [18] 0.041 | [19] -0.032 | [20] -0.015

GTPBP4 (UniProt Q9BZE4)
inactive: [1] -0.014 | [2] 0.016 | [3] 0.032 | [4] -0.016 | [5] -0.016 | [6] -0.005 | [7] -0.061 | [8] -0.018 | [9] -0.001 | [10] 0.005 | [11] 0.035 | [12] -0.018 | [13] 0.008 | [14] -0.001 | [15] 0.003 | [16] -0.011 | [17] 0.102 | [18] 0.005 | [19] -0.008 | [20] -0.023

GRWD1 (UniProt Q9BQ67)
inactive: [1] -0.013 | [2] 0 | [3] -0.028 | [4] -0.006 | [5] -0.02 | [6] -0.027 | [7] -0.075 | [8] 0.017 | [9] 0.001 | [10] 0.02 | [11] 0.009 | [12] -0.026 | [13] 0.017 | [14] 0.028 | [15] -0.013 | [16] 0.008 | [17] 0.115 | [18] -0.005 | [19] 0.024 | [20] -0.001

GTF2F1 (UniProt P35269)
inactive: [1] -0.025 | [2] 0.017 | [3] -0.052 | [4] 0.035 | [5] 0.024 | [6] -0.005 | [7] -0.145 | [8] 0.076 | [9] 0.014 | [10] -0.003 | [11] -0.029 | [12] 0.068 | [13] 0.01 | [14] 0.003 | [15] 0.066 | [16] 0.003 | [17] -0.014 | [18] -0.011 | [19] 0 | [20] -0.015

HACL1 (UniProt Q9UJ83)
inactive: [1] 0.027 | [2] -0.004 | [3] -0.005 | [4] 0.041 | [5] 0.023 | [6] 0.01 | [7] 0.047 | [8] 0 | [9] 0.012 | [10] 0.005 | [11] 0.01 | [12] 0.004 | [13] 0.016 | [14] -0.006 | [15] -0.003 | [16] 0.025 | [17] -0.052 | [18] -0.031 | [19] 0.014 | [20] -0.009

GXYLT1 (UniProt Q4G148)
inactive: [1] 0.003 | [2] 0.004 | [3] -0.07 | [4] -0.149 | [5] 0.007 | [6] -0.012 | [7] -0.113 | [8] -0.009 | [9] -0.116 | [10] -0.004 | [11] -0.029 | [12] 0.049 | [13] 0.007 | [14] 0.022 | [15] 0.121 | [16] -0.082 | [17] 0.148 | [18] -0.12 | [19] -0.045 | [20] 0.008

HARS (UniProt P12081)
inactive: [1] -0.024 | [2] -0.02 | [3] -0.031 | [4] -0.049 | [5] -0.006 | [6] 0.012 | [7] 0.023 | [8] -0.01 | [9] -0.021 | [10] 0.009 | [11] 0 | [12] 0.001 | [13] -0.02 | [14] -0.02 | [15] -0.054 | [16] -0.03 | [18] 0.003 | [19] 0.015 | [20] 0.007
active: [17] 0.254

HDAC8 (UniProt Q9BY41)
inactive: [1] 0.051 | [2] 0.06 | [3] -0.135 | [4] -0.034 | [5] -0.084 | [6] -0.018 | [7] -0.057 | [8] 0.169 | [9] 0.04 | [10] -0.029 | [11] 0.016 | [12] -0.002 | [13] 0.058 | [14] -0.109 | [15] -0.071 | [16] 0.002 | [17] 0.172 | [18] -0.015 | [19] 0.018 | [20] 0

GSK3A (UniProt P49840)
active: [10] 0.535 | [11] 0.53
inactive: [1] -0.013 | [2] 0.006 | [3] -0.04 | [4] -0.015 | [5] -0.01 | [6] 0.026 | [7] -0.133 | [8] 0.154 | [9] 0.01 | [12] -0.089 | [13] 0.05 | [14] 0.353 | [15] -0.042 | [16] 0.161 | [17] -0.118 | [18] -0.03 | [19] -0.015 | [20] 0.003

GTSE1 (UniProt Q9NYZ3)
inactive: [1] 0.042 | [2] 0.13 | [3] 0 | [4] 0.105 | [5] 0.022 | [6] -0.081 | [7] -0.201 | [8] 0.001 | [9] 0.009 | [10] -0.028 | [11] -0.03 | [12] -0.114 | [13] 0.104 | [14] -0.005 | [15] -0.018 | [16] 0.052 | [17] -0.127 | [18] -0.013 | [19] -0.02 | [20] 0.022

HDGF (UniProt P51858)
inactive: [1] -0.001 | [2] -0.025 | [3] -0.044 | [4] 0.045 | [5] 0.023 | [6] -0.047 | [7] 0.106 | [8] -0.051 | [9] -0.025 | [10] 0.036 | [11] 0.033 | [12] 0.049 | [13] -0.012 | [14] -0.03 | [15] 0.01 | [16] -0.025 | [17] -0.021 | [18] 0.002 | [19] 0.013 | [20] -0.006
